Source: PubChem BioAssay AID1259424 (University of Nebraska Medical Center, 2018)

- Assay: 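Find knockdowns that reproduce the expression shifts seen after KSR1 loss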 (primary screen)
- Cell system: human HCT116 colon cancer cells
- Reagents: siRNA pool against human genes, 50 nM
- Measured: 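Six signature mRNAs by branched-DNA multiplex assay, scaled to two housekeeping genes and non-targeting median, log2; matched to mean KSR1 knockdown profile by Pearson correlation and euclidean distance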
- Direction: mean correlation with KSR1 profile: higher = expression change more like KSR1 knockdown; mean distance from KSR1 profile: higher = expression change less like KSR1 knockdown
The whole screen tested about 14,000 reagents; below is a random part of them. 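Higher correlation or smaller distance means closer resemblance to KSR1 loss; control wells, including KSR1 knockdowns, recur on many plates.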 Further read-outs or replicates are left out here. The record does not give: the time to read-out.

The first 2 entries, ahead of the listing:
{"Gene": "CLUH", "mean correlation with KSR1 profile": -0.162, "mean distance from KSR1 profile": 2.18}
{"Gene": "PRPS1", "mean correlation with KSR1 profile": -0.125, "mean distance from KSR1 profile": 2.77}

Main list, repeating the preview:
{"Gene": "CLUH", "mean correlation with KSR1 profile": -0.162, "mean distance from KSR1 profile": 2.18}
{"Gene": "PRPS1", "mean correlation with KSR1 profile": -0.125, "mean distance from KSR1 profile": 2.77}
{"Gene": "NRDE2", "mean correlation with KSR1 profile": -0.173, "mean distance from KSR1 profile": 3.05}
{"Gene": "TTC27", "mean correlation with KSR1 profile": -0.131, "mean distance from KSR1 profile": 2.91}
{"Gene": "S100PBP", "mean correlation with KSR1 profile": -0.00675, "mean distance from KSR1 profile": 1.21}
{"Gene": "NONO", "mean correlation with KSR1 profile": 0.797, "mean distance from KSR1 profile": 2.08}
{"Gene": "PGM5", "mean correlation with KSR1 profile": 0.446, "mean distance from KSR1 profile": 3.07}
{"Gene": "CERS4", "mean correlation with KSR1 profile": -0.157, "mean distance from KSR1 profile": 1.59}
{"Gene": "WASHC3", "mean correlation with KSR1 profile": -0.647, "mean distance from KSR1 profile": 1.95}
{"Gene": "COL27A1", "mean correlation with KSR1 profile": 0.275, "mean distance from KSR1 profile": 2.39}
{"Gene": "CPN1", "mean correlation with KSR1 profile": 0.387, "mean distance from KSR1 profile": 2.48}
{"Gene": "DRC11", "mean correlation with KSR1 profile": 0.246, "mean distance from KSR1 profile": 1.74}
{"Gene": "ALAD", "mean correlation with KSR1 profile": -0.467, "mean distance from KSR1 profile": 3.88}
{"Gene": "LRFN3", "mean correlation with KSR1 profile": 0.485, "mean distance from KSR1 profile": 1.32}
{"Gene": "NSUN2", "mean correlation with KSR1 profile": -0.446, "mean distance from KSR1 profile": 2.41}
{"Gene": "OXA1L", "mean correlation with KSR1 profile": -0.0497, "mean distance from KSR1 profile": 2.1}
{"Gene": "SLC25A24", "mean correlation with KSR1 profile": -0.381, "mean distance from KSR1 profile": 2.94}
{"Gene": "KANK1", "mean correlation with KSR1 profile": -0.301, "mean distance from KSR1 profile": 1.9}
{"Gene": "CXXC1", "mean correlation with KSR1 profile": 0.171, "mean distance from KSR1 profile": 1.44}
